According to patent US8716703B2, “Organic semiconductor transistor” (Fuji Xerox Co., Ltd., priority 2011, dated 2014):

Experiment: Evaluation of charge mobility of the organic semiconductor transistor (saturation region of current-voltage characteristics)
Settings: for Charge mobility Immediately after production: transistor immediately after production; for Charge mobility One month after production: transistor stored at 25° C., after a lapse of one month

Row | Compound | Charge mobility Immediately after production | Charge mobility One month after production
1 | CC(=O)N1C2c3cc4ccccc4cc3C(c3cc4ccccc4cc32)[S+]1[O-] (stereo not shown) [compound 1, 13,6-N-sulfinylacetamidopentacene, reference compound] | 7.5 × 10^−4 cm^2/Vs | Not measurable
2 | CCCCCCCCCCc1ccc(-c2ccc(-c3ccc4c(c3)C(C)(C)c3cc(CCCCCC)ccc3-4)s2)cc1 [Exemplary compound 32] | 8.98 × 10^−4 cm^2/Vs | 5.85 × 10^−4 cm^2/Vs
3 | CCCCCCCCc1ccc(-c2ccc(-c3ccc(-c4ccc(-c5ccc6c(c5)C(CCCCCC)(CCCCCC)c5cc(CCCCCC)ccc5-6)s4)s3)s2)cc1 [Exemplary compound 28] | 2.15 × 10^−3 cm^2/Vs | 7.58 × 10^−4 cm^2/Vs
4 | CCCCCCCCCCc1ccc2c(c1)C(C)(C)c1cc(-c3ccc(-c4ccc(CCCCCCCC)cc4)s3)ccc1-2 [Exemplary compound 34] | 8.28 × 10^−4 cm^2/Vs | 5.59 × 10^−4 cm^2/Vs
5 | CC1(C)c2cc(-c3ccc(-c4cccs4)s3)ccc2-c2ccc(-c3ccc(-c4cccs4)s3)cc21 [compound 3, reference compound] | 3.5 × 10^−4 cm^2/Vs | 8.5 × 10^−7 cm^2/Vs
6 | CCCCCCCCc1ccc(-c2ccc(-c3ccc4c(c3)C(C)(C)c3cc(CCCCCC)ccc3-4)s2)cc1 [Exemplary compound 20] | 8.83 × 10^−4 cm^2/Vs | 6.17 × 10^−4 cm^2/Vs
7 | CC1(C)c2ccccc2-c2ccc(-c3ccc(-c4cccs4)s3)cc21 [compound 4, reference compound] | 2.5 × 10^−4 cm^2/Vs | Not measurable
8 | CCCCCCCCc1ccc(-c2ccc(-c3ccc(-c4ccc5c(c4)C(C)(C)c4cc(CCCCCC)ccc4-5)s3)s2)cc1 [Exemplary compound 21] | 9.58 × 10^−4 cm^2/Vs | 5.45 × 10^−4 cm^2/Vs
